For assay [1], the target named is T1, Flag-FBXO6 (human) (UniProt Q9NRD1).
T1 sequence: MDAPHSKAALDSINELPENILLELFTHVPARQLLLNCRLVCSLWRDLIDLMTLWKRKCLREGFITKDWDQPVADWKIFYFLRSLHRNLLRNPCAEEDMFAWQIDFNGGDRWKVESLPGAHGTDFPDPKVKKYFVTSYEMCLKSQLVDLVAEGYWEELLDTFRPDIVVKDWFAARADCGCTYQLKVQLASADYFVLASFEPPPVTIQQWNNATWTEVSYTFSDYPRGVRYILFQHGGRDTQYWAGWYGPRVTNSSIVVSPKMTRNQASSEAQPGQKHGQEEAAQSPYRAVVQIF
The assay is described as follows: co-IP; 293T cells co-transfected with Flag-FBXO6 and HA-RNASET2 for 36 h; lysate immunoprecipitated with anti-Flag M2 resin; western blot. On the technique in general: In western blotting, separated proteins are transferred to a membrane and probed.

Protein sequences, listed by entry. Tags and fused reporters are not part of them. Residues count along the entry.
UniProt O00584, residues 25-256: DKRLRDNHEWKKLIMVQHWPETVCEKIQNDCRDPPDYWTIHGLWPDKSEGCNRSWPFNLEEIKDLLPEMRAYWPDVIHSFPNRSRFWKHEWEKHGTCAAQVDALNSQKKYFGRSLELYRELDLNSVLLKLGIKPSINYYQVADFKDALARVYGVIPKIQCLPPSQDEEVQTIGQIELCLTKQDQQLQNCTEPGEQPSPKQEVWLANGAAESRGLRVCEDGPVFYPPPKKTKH
UniProt P63208: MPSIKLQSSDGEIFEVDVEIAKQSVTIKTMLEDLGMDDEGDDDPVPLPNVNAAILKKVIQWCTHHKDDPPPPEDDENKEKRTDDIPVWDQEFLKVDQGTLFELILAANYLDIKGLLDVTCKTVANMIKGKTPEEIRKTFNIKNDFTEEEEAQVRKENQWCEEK

Assay [2] addresses T1, Flag-FBXO6 (human). Kind of assay: co-IP; 293T cells transfected with FLAG-tagged F-box proteins or FBXO6 deletion constructs for 36 h; anti-Flag M2 resin, eluted with 3x Flag peptides; immunoblot.
For assay [3], the target named is T2, endogenous FBXO6 (human (endogenous in A2780 and OVCAR-3)) (UniProt Q9NRD1).
T2 sequence: T1 sequence
Kind of assay: co-IP; endogenous; A2780 cells treated with MG132 for 4 h; lysate immunoprecipitated with anti-FBXO6 antibody, nonspecific IgG as control; immunoblot.

In assay [4] the target is T3, Flag-tagged FBXO6 deletion construct: C-terminal FBA domain (human) (UniProt Q9NRD1).
T3 sequence: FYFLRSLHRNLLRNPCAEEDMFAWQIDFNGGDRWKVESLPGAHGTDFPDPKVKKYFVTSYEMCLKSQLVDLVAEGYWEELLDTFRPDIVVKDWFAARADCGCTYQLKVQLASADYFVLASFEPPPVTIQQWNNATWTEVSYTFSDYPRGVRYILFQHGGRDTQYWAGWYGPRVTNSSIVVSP
The assay is described as follows: co-IP; 293T cells transfected with FLAG-tagged F-box proteins or FBXO6 deletion constructs for 36 h; anti-Flag M2 resin, eluted with 3x Flag peptides; immunoblot.

Assay [5] addresses T1, Flag-FBXO6 (human). Kind of assay: co-IP; OVCAR-3 cells transfected with Flag-FBXO6 WT or Mut for 36 h; anti-Flag M2 resin, eluted with 3x Flag peptides; immunoblot of endogenous RNASET2.

No constants are given. Whether binding was seen depends on the method and setting. Binding seen in cells or lysates may run through a third protein. Some entries that bind do so weakly or less than the wild type. For part of these data: Tags and fused reporters may be left off the sequences shown.

Consider HA-RNASET2 (from UniProt O00584 25-256), for which the binding entry with Flag-FBXO6 (human) [1] is on record as “binds”.
For SKP1 (from UniProt P63208 1-163), in the assay with Flag-FBXO6 (human) [2], the binding result is “binds”.
For “endogenous RNASET2 (from UniProt O00584 25-256)”, the binding entry (in assay [3]; in assay [4]; in the assay with Flag-FBXO6 (human) [2]; in the assay with Flag-FBXO6 (human) [5]) was “binds” throughout.

The values are drawn from article PMC7994844.
